{"source": "PubChem BioAssay AID686938 (Drosophila RNAi Screening Center, 2013)", "assay": "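Fly genes required for calcium entry once internal stores are emptied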 (primary screen)", "cells": "Drosophila S2R+ cells", "reagent": "long dsRNA against Drosophila genes, about 0.25 µg dsRNA per well, roughly 10,000 cells", "duration": "5 days of knock-down before the calcium assay", "conditions": "thapsigargin (SERCA pump blocker) to empty calcium stores; entry signal taken 4 min after adding it", "measurement": "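Duplicate raw fluo-4 intensities per well from a plate reader, at rest and four minutes after thapsigargin emptied calcium stores; entry-to-rest ratio filled for only some wells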", "scale": "calcium entry signal: higher = stronger calcium signal after store depletion; entry to resting ratio: higher = more calcium entry relative to resting level; resting calcium signal: higher = higher resting calcium signal", "units": "calcium entry signal in fluorescence units; resting calcium signal in fluorescence units", "active means": "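Hit if the duplicate-averaged plate z-score for entry over resting signal is under −3; wells with weak total dye signal (Fmax z < −2) or more than 5 off-targets removed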", "meaning of the calls": "active = strongly reduced calcium entry; inactive = no strong reduction", "note": "The deposit covers about 23,000 reagents; below is a random part of those that have a named target and a result. Of all reagents, 75 (0.33%) were called active. 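Raw plate signals without normalisation; calls rest on plate z-scores that were not deposited; ratio present for only 364 wells.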 The numbers tell different reagents against one gene apart. Names joined by + are all predicted targets of the reagent. Not stated in the record: the dose of the treatment."}
{"Gene": "FucTB (GeneID 34260)", "reagent": 1, "calcium entry signal, replicate 1": 2.86e7, "calcium entry signal, replicate 2": 4.61e7, "resting calcium signal, replicate 1": 1.40e7, "resting calcium signal, replicate 2": 1.86e7, "outcome": "inactive"}
{"Gene": "CG12853 (GeneID 50220)", "reagent": 1, "calcium entry signal, replicate 1": 3.53e7, "calcium entry signal, replicate 2": 2.94e7, "resting calcium signal, replicate 1": 1.88e7, "resting calcium signal, replicate 2": 1.72e7, "outcome": "inactive"}
{"Gene": "CG15012 (GeneID 38529)", "reagent": 1, "calcium entry signal, replicate 1": 5.13e7, "calcium entry signal, replicate 2": 3.72e7, "resting calcium signal, replicate 1": 3.46e7, "resting calcium signal, replicate 2": 1.69e7, "outcome": "inactive"}
{"Gene": "Oxp (GeneID 37002)", "reagent": 1, "calcium entry signal, replicate 1": 4.93e7, "calcium entry signal, replicate 2": 5.31e7, "resting calcium signal, replicate 1": 2.07e7, "resting calcium signal, replicate 2": 2.51e7, "outcome": "inactive"}
{"Gene": "CG6974 (GeneID 41815)", "reagent": 1, "calcium entry signal, replicate 1": 3.80e7, "calcium entry signal, replicate 2": 4.94e7, "resting calcium signal, replicate 1": 1.76e7, "resting calcium signal, replicate 2": 5.54e7, "outcome": "inactive"}
{"Gene": "CG14797 + CG32809", "reagent": 1, "calcium entry signal, replicate 1": 3.98e7, "calcium entry signal, replicate 2": 4.34e7, "entry to resting ratio": 2.2, "resting calcium signal, replicate 1": 1.85e7, "resting calcium signal, replicate 2": 1.77e7, "outcome": "inactive"}
{"Gene": "CG9356 (GeneID 41122)", "reagent": 1, "calcium entry signal, replicate 1": 3.74e7, "calcium entry signal, replicate 2": 3.88e7, "resting calcium signal, replicate 1": 1.80e7, "resting calcium signal, replicate 2": 1.81e7, "outcome": "inactive"}
{"Gene": "SerT (GeneID 37895)", "reagent": 1, "calcium entry signal, replicate 1": 4.73e7, "calcium entry signal, replicate 2": 5.56e7, "resting calcium signal, replicate 1": 2.51e7, "resting calcium signal, replicate 2": 2.62e7, "outcome": "inactive"}
{"Gene": "CG33062 (GeneID 318840)", "reagent": 1, "calcium entry signal, replicate 1": 3.51e7, "calcium entry signal, replicate 2": 3.51e7, "resting calcium signal, replicate 1": 1.81e7, "resting calcium signal, replicate 2": 1.88e7, "outcome": "inactive"}
{"Gene": "CG13674 (GeneID 38921)", "reagent": 1, "calcium entry signal, replicate 1": 2.66e7, "calcium entry signal, replicate 2": 3.39e7, "resting calcium signal, replicate 1": 1.50e7, "resting calcium signal, replicate 2": 1.50e7, "outcome": "inactive"}

Only “calcium entry signal, replicate 1”, for 4 of the entries above:
CG15012 (GeneID 38529): 5.13e7
Oxp (GeneID 37002): 4.93e7
CG6974 (GeneID 41815): 3.80e7
CG14797 + CG32809: 3.98e7

More entries follow.
{"Gene": "Rab4 (GeneID 36992)", "reagent": 1, "calcium entry signal, replicate 1": 3.19e7, "calcium entry signal, replicate 2": 3.15e7, "resting calcium signal, replicate 1": 1.51e7, "resting calcium signal, replicate 2": 1.56e7, "outcome": "inactive"}
{"Gene": "Alas (GeneID 37815)", "reagent": 1, "calcium entry signal, replicate 1": 3.87e7, "resting calcium signal, replicate 1": 1.97e7, "outcome": "inactive"}
{"Gene": "Polr2F (GeneID 48312)", "reagent": 1, "calcium entry signal, replicate 1": 1.11e7, "calcium entry signal, replicate 2": 1.51e7, "resting calcium signal, replicate 1": 8.16e6, "resting calcium signal, replicate 2": 1.13e7, "outcome": "inactive"}
{"Gene": "CG31788 (GeneID 318942)", "reagent": 1, "calcium entry signal, replicate 1": 3.06e7, "calcium entry signal, replicate 2": 3.35e7, "resting calcium signal, replicate 1": 1.62e7, "resting calcium signal, replicate 2": 1.73e7, "outcome": "inactive"}
{"Gene": "gus (GeneID 35478)", "reagent": 1, "calcium entry signal, replicate 1": 3.17e7, "resting calcium signal, replicate 1": 1.57e7, "outcome": "inactive"}
{"Gene": "gus (GeneID 35478)", "reagent": 2, "calcium entry signal, replicate 1": 3.39e7, "calcium entry signal, replicate 2": 4.84e7, "resting calcium signal, replicate 1": 1.80e7, "resting calcium signal, replicate 2": 2.23e7, "outcome": "inactive"}
{"Gene": "CG13810 (GeneID 38278)", "reagent": 1, "calcium entry signal, replicate 1": 2.55e7, "calcium entry signal, replicate 2": 3.58e7, "resting calcium signal, replicate 1": 1.28e7, "resting calcium signal, replicate 2": 1.51e7, "outcome": "inactive"}
{"Gene": "CG13810 (GeneID 38278)", "reagent": 2, "calcium entry signal, replicate 1": 2.83e7, "calcium entry signal, replicate 2": 3.86e7, "resting calcium signal, replicate 1": 1.45e7, "resting calcium signal, replicate 2": 1.73e7, "outcome": "inactive"}
{"Gene": "PpN58A (GeneID 37493)", "reagent": 1, "calcium entry signal, replicate 1": 3.14e7, "resting calcium signal, replicate 1": 1.57e7, "outcome": "inactive"}
{"Gene": "Gmd (GeneID 33716)", "reagent": 1, "calcium entry signal, replicate 1": 3.61e7, "resting calcium signal, replicate 1": 1.95e7, "outcome": "inactive"}
{"Gene": "CG14759 (GeneID 35803)", "reagent": 1, "calcium entry signal, replicate 1": 3.38e7, "calcium entry signal, replicate 2": 3.43e7, "resting calcium signal, replicate 1": 1.63e7, "resting calcium signal, replicate 2": 1.44e7, "outcome": "inactive"}
